In the assay the target is T1, Q11 β-sheet fibrillizing peptide (assembled as Q11 nanofibers, gels or microgels).
T1 sequence (peptide): QQKFQFQFEQQ
The experiment in a line: fluorescence microscopy of Q11 microgels.

The source of these data is patent publication US20160074488A1.

These are yes or no findings as the source states them, for the method shown. Some entries that bind do so weakly or less than the wild type.

B1: βTail-dsRED monomer (protein)
chain: MALKVELEKLKSELVVLHSHLEKLKSELGSGGGGSGGGGSGGGGGGGSGGGGSGGGGSGGGGSSDDNTEDVIKEFMQFKVRMEGSVNGHYFEIEGEGEGKPYEGTQTAKLQVTKGGPLPFAWDILSPQFQYGSKAYVKHPADIPDYMKLSFPEGFTWERSMNFEDGGVVEVQQDSSLQDGTFIYKVKFKGVNFPADGPVMQKKTAGWEPSTEKLYPQDGVLKGEISHALKLKDGGHYTCDFKTVYKAKKPVQLPGNHYVDSKLDITNHNEDYTVVEQYEHAEARHSGSQHHHHHH
With B1, the binding entry is recorded as “binds”.
